Reference: publication PMC5248655 (ACS chemical neuroscience, 2015)
Structures can show the parent of a compound that is named as a salt. Where two headings read alike, the source gives them in different places.

Columns and labels:
[1] = test system: Sprague–Dawley male rats; experiment: Brain efflux index; conditions: aged rats (24 months) after 26 day treatment; absolute value reached
[2] = test system: Aβ40; conditions: rat, in vivo
[3] = test system: Sprague–Dawley male rats; experiment: TCA precipitation assay of Aβ degradation in treated rats; format: in vivo, rat; conditions: rats treated 26 days, data not shown
[4] = test system: Aβ42; conditions: rat, in vivo
[5] = test system: LRP1; conditions: 26 day treatment, Western blot, n = 5

Structure (SMILES): COc1cc2c(cc1OC)C(=O)C(CC1CCN(Cc3ccccc3)CC1)C2 (stereo not drawn) [donepezil, Donepezil hydrochloride]
- ^125I-Aβ40 BEI% [1]: 61%
- reduction of total brain Aβ40 level [2]: 29%
- total Aβ40 level in brain [2]: 2497 ± 142 pmol/g brain tissue
- effect on Aβ degradation [3]: no effect
- reduction of total brain Aβ42 level [4]: 41%
- reduction trend in brain Aβ42 levels (in words) [4]: not statistically significant
- total Aβ42 level in brain [4]: 586 ± 31 pmol/g brain tissue
- increase in brain LRP1 protein expression ([5]; aged rats): 20%
- increase in brain LRP1 protein expression ([5]; young rats): 22%
